Reference: the supplement of paper PMC3334620
The full ranking holds about 33,000 sequences; the median of “E-score (-0.5 to 0.5)” is about -0.0034, and the highest 2% start at about 0.25. This is one part of the list.

molecular target: T1, Yap3 (UniProt P38749); test: PBM E-score (8-mer binding enrichment) (E-score (-0.5 to 0.5)); higher = stronger / more preferred TF binding; conditions: protein concentration: 100 nM; construct: GST-full length
T1 sequence: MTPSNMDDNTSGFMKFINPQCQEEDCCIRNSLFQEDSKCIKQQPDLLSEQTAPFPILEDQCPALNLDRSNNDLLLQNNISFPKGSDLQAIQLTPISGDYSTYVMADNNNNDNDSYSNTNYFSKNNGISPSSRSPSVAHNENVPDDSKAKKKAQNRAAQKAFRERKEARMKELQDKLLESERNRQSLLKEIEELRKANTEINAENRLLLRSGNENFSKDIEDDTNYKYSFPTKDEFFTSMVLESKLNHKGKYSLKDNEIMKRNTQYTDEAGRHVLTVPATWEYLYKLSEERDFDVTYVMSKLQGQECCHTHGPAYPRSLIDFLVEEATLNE
Summary of the method: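 Universal all-10-mer Agilent arrays, double-stranded by primer extension on fresh or once-stripped slides, were probed with about 100-200 nM GST-tagged yeast transcription factors made by PURExpress. Fluorescent anti-GST detected bound protein, and masliner normalised the scans. E-scores from the Universal PBM Analysis Suite were given to each ungapped eight-base word pooled with its reverse complement.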

Sequence | PBM E-score
AACTAACG | 0.103
ACAGCACA | 0.0102
GCCCCGCA | -0.221
CGGCTTTA | 0.0265
ACACCCCG | -0.325
GCCTAGGA | -0.227
CAATTGAG | 0.0311
CTGCTTGC | -0.171
CCAAACGA | -0.0994
CCCGAAGA | -0.137
ATGGGCAG | 0.0284
GCATCCGA | -0.169
AGTCGACC | -0.0691
GCGAGAAC | -0.0233
TACGGCCA | -0.0385
AGTTGTAG | 0.0912
GCTGCGCA | -0.253
ACGCTCGA | -0.08
ACAAGGGA | -0.12
CCTTTGCA | -0.0482
GCTAAGTA | 0.146
CCGTATTC | 0.0278
AGCTGACA | -0.153
AGCGGCCT | -0.207
ACCTATTC | -0.109

Sequence | PBM E-score
AAAGGCTA | 0.00049
ACCGCACA | -0.11
AAGTCCGG | -0.149
GATTCTAA | -0.0356
GTCATTGA | 0.112
AAATCGGA | -0.00717
AACATAGG | 0.0402
CACACCGC | -0.176
TAAACTGA | 0.147
AGTAAGAG | 0.0235
CCTCCAAA | -0.122
ACGTCGGC | -0.0204
GCGTCACA | 0.0364
ATGAGTCA | 0.192
CCCACCAG | -0.148
ATATTCAG | 0.131
ATGAATTG | 0.208
GCACCCCA | -0.118
GTCAGCGA | -0.149
ACGGGACG | -0.169
AATCAGGG | -0.127
CCCGTAGA | -0.345
ACCACGGT | -0.281
ACAATCGC | 0.124
AGGTCTAA | 0.00299

Looked up one by one from the entries so far (5):
Sequence | PBM E-score
ATGAGTCA | 0.192
CCGTATTC | 0.0278
GATTCTAA | -0.0356
ACGTCGGC | -0.0204
ACACCCCG | -0.325

Additional records:

Sequence | PBM E-score
ACATGCCC | -0.183
AAAATACT | 0.0626
CAAGTCCG | -0.194
AAATATGT | 0.286
ACATCCCA | -0.08
CCGTTAGG | 0.00098
AGGCCAAT | -0.0612
AGCTAACA | -0.0328
ATCCCTAC | 0.077
GAGAGGGA | -0.278
CAATAGAC | 0.111
AGGCGAAC | -0.129
CTAATAAA | 0.178
GAGAAGCA | -0.118
CGACCCTC | -0.232
GGCTTTGA | -0.00632
AAGGCGTG | -0.157
AACTAAGG | 0.0261
GACGCCCA | -0.0057
TGTGAACA | 0.0599
AATTATGG | 0.238
TGGTCAAA | 0.0841
CCAGCCCC | -0.218
CGGGTCAA | -0.0934
GTGTTGGA | 0.0456

Sequence | PBM E-score
CACCTTAA | 0.142
TACGTAAA | 0.319
CATCGTAC | 0.029
GTCGACAC | -0.0164
AGGCAAGA | -0.00431
AAACTTAT | 0.159
CTTTATTA | 0.199
CGACGACG | -0.176
CATCCGCA | 0.0681
TGGGTCAA | -0.0606
AGATCAGC | -0.126
CCATTACC | 0.0322
GAGAGTTA | 0.0167
CGAAAATA | 0.143
ACTCGCGC | 0.115
ATCTCTTC | 0.0603
CAAACACA | 0.172
AGAGTAGA | 0.132
AGGTCGCC | -0.201
CGCGACGA | 0.186
CAAGCTAG | -0.0475
CATCTAGC | -0.0525
ACCGGTTC | -0.0158
ATGAAGCG | -0.141
CACGTTCC | -0.0345

Sequence | PBM E-score
CCAATGGG | -0.327
AGATTACG | 0.213
TTTCCAAA | 0.02
TATAATAA | 0.287
AGACCTTA | 0.0637
AGGACGAC | -0.201
CATACGCA | -0.0288
GATTTTGA | 0.194
CACGGCCG | -0.0612
AATTTATG | 0.252
CATTCTCA | 0.201
TATATAAA | 0.274
ACCTCACC | -0.0618
ACTCATGA | 0.207
GTTGATGA | 0.177
CACACAGG | 0.0663
GTTCTTCA | 0.0992
GTGTGTGA | 0.0344
GAATGGTA | 0.057
ATGGCAAC | 0.161
AAATCGTA | 0.152
AATCCTCG | 0.0201
AGTGTCTC | -0.0462
CCGTTTAA | 0.0507
CGCTGTCA | -0.151

Sequence | PBM E-score
ACCAGTTA | 0.139
GCTGCCAA | -0.14
CACCCACG | 0.0674
ATATGGCA | 0.0955
ACAGACTC | -0.246
GATGTTGC | 0.0753
CTCTTTTA | 0.0331
AGGTTCCG | 0.017
AAAGATCC | -0.0985
CAGGGTCG | -0.203
CCCGGATC | -0.108
AGCCATAC | -0.16
TGCACAAA | 0.102
AGTTCTTG | 0.0519
CACTGCAC | -0.0913
CTTTTTAC | 0.112
CGGAATAA | 0.107
ATGGTAAA | 0.19
AAGATCGT | 0.0564
AAAATACG | 0.234
CAATTTCA | 0.0657
GGAGGGCA | -0.255
CGGTCTAG | -0.128
TACTGGAA | 0.0679
ATTAACCG | 0.143

Rewritten tab-delimited: entries from further up.
Sequence	PBM E-score
AACTAACG	0.103
GCCCCGCA	-0.221
CAATTGAG	0.0311
CTGCTTGC	-0.171
CCAAACGA	-0.0994
CCCGAAGA	-0.137
AGTCGACC	-0.0691
TACGGCCA	-0.0385
AGTTGTAG	0.0912
CCTTTGCA	-0.0482
GCTAAGTA	0.146
CCGTATTC	0.0278
AGCTGACA	-0.153
AGCGGCCT	-0.207
AAAGGCTA	0.00049
CACACCGC	-0.176
CCCGTAGA	-0.345
AGGTCTAA	0.00299
ACATGCCC	-0.183
AAAATACT	0.0626
CCGTTAGG	0.00098
ATCCCTAC	0.077
CAATAGAC	0.111
AGGCGAAC	-0.129
CTAATAAA	0.178
TGTGAACA	0.0599
CCAGCCCC	-0.218
CACCTTAA	0.142
CATCGTAC	0.029
CATCCGCA	0.0681
ATCTCTTC	0.0603
AGAGTAGA	0.132
CGCGACGA	0.186
CATCTAGC	-0.0525
AGATTACG	0.213
GATTTTGA	0.194
CACGGCCG	-0.0612
TATATAAA	0.274
GTTCTTCA	0.0992
ATGGCAAC	0.161
AAATCGTA	0.152
AATCCTCG	0.0201
AGTGTCTC	-0.0462
CCGTTTAA	0.0507
CGCTGTCA	-0.151
GCTGCCAA	-0.14
CACCCACG	0.0674
AGGTTCCG	0.017
AAAGATCC	-0.0985
TGCACAAA	0.102
CACTGCAC	-0.0913
ATGGTAAA	0.19
CGGTCTAG	-0.128

Further results:

Sequence | PBM E-score
ATGGATGC | 0.0712
CAGTACTG | -0.168
GACTCTAC | -0.199
CGCCGCCG | -0.0221
ATCCAAAG | 0.165
ACTAGGGC | -0.153
AAGGGGGG | -0.428
CAATCGTA | 0.109
CACAGCGC | 0.0581
GTCCTAAC | -0.0915
CCCCAACG | 0.0353
CGAGTAAC | 0.191
ACGTGCAT | -0.0838
CTAGCACA | -0.136
TTCGACAA | 0.163
ACTTCCCC | -0.251
ACAACAAG | 0.122
CAGCACAC | -0.173
GCTGCGGA | 0.0222
GGACCCTA | -0.251
GTGTATCA | 0.218
AGTGTCAG | 0.0192
